Laboratory results as given in patent US8138211B2, “Isothiazolyloxyphenylamidines and their use as fungicides” (Bayer Cropscience AG, priority 2009, dated 2012).
Some results were stated once for a whole list of compounds, not compound by compound. At least one compound was matched to its structure with a doubt left.

Tests used:
Assay type in all cases: in vivo
Sphaerotheca fuliginea = experiment: Sphaerotheca test (cucumber)/protective; details: active compound concentration of 500 ppm, protective, evaluation 7 days after inoculation
Puccinia recondita = experiment: Puccinia test (wheat)/protective; details: active compound concentration of 500 ppm, protective, evaluation 7-9 days after inoculation
Pyrenophora teres = Pyrenophora teres test (barley)/protective; details: active compound concentration of 500 ppm, protective, evaluation 8 days after inoculation
Septoria tritici = Septoria tritici test (wheat)/protective; details: active compound concentration of 500 ppm, protective, evaluation 21 days after inoculation

Structure (SMILES) | efficacy (Sphaerotheca fuliginea) [%] | efficacy (Puccinia recondita) [%] | efficacy (Pyrenophora teres) [%] | efficacy (Septoria tritici) [%]
CCN(C)C=Nc1cc(C)c(Oc2cc(-c3ccccc3)ns2)cc1Cl [compound 46] | ≥ 70 | ≥ 70 | ≥ 70 | –
Cc1cc(Oc2snc3ccccc23)c(C)cc1/N=C/N1CCCCC1 [compound 62] | ≥ 70 | ≥ 70 | ≥ 70 | –
CCN(C)C=Nc1cc(C)c(Oc2snc(-c3ccccc3Cl)c2C#N)cc1Cl [compound 91] | ≥ 70 | ≥ 70 | ≥ 70 | –
Cc1cc(Oc2snc(CC(C)(C)C)c2C#N)c(Cl)cc1N=CN(C)C [compound 102] | ≥ 70 | ≥ 70 | ≥ 70 | ≥ 70
Cc1cc(Oc2snc(C)c2Br)c(C)cc1/N=C/N1CCCCC1 [compound 107] | – | – | ≥ 70 | ≥ 70
Cc1cc(Oc2snc(C(C)(C)c3ccccc3)c2C#N)c(C)cc1N=CN(C)C [compound 120] | ≥ 70 | ≥ 70 | ≥ 70 | ≥ 70
CCN(C)C=Nc1cc(C)c(Oc2snc(-c3ccccc3F)c2C#N)cc1Cl [compound 136] | ≥ 70 | ≥ 70 | ≥ 70 | –
CCN(C)C=Nc1cc(C)c(Oc2snc(C3(Cl)CC3)c2C#N)cc1Cl [compound 142] | ≥ 70 | ≥ 70 | ≥ 70 | ≥ 70
CCOC(=O)c1c(C)nsc1Oc1cc(Cl)c(/N=C/N(C)CC)cc1C [compound 147] | ≥ 70 | ≥ 70 | ≥ 70 | ≥ 70
Cc1cc(Oc2snc(C3(Cl)CC3)c2C#N)c(Cl)cc1N=CN(C)C(C)C [compound 154] | ≥ 70 | ≥ 70 | ≥ 70 | ≥ 70
CCN(C)/C=N/c1cc(C)c(Oc2snc(C(C)(C)C)c2C#N)cc1C.Cl [compound 155] | – | – | ≥ 70 | –
CCN(C)C=Nc1cc(C)c(Oc2snc(C)c2I)cc1C [compound 158] | ≥ 70 | ≥ 70 | ≥ 70 | ≥ 70
Cc1ccc(-c2nsc(Oc3cc(C)c(N=CN(C)C)cc3C)c2C#N)cc1 [compound 160] | ≥ 70 | ≥ 70 | ≥ 70 | –
Cc1ccc(-c2nsc(Oc3cc(C)c(N=CN(C)C(C)C)cc3Cl)c2C#N)cc1 [compound 162] | ≥ 70 | ≥ 70 | ≥ 70 | ≥ 70
CCN(C)C=Nc1cc(C)c(Oc2snc3ccccc23)cc1Cl [compound 175] | ≥ 70 | ≥ 70 | ≥ 70 | ≥ 70
CCC(C)(CC)c1nsc(Oc2cc(C)c(N=CN(C)C(C)C)cc2Cl)c1C#N [compound 187] | – | – | ≥ 70 | ≥ 70
CCN(C)C=Nc1cc(C#N)c(Oc2snc(C(C)(C)C)c2C#N)cc1C [compound 194] | ≥ 70 | ≥ 70 | – | ≥ 70
Cc1cc(N=CN(C)C(C)C)c(Cl)cc1Oc1snc(-c2ccc(Cl)cc2Cl)c1C#N [compound 207] | ≥ 70 | ≥ 70 | ≥ 70 | ≥ 70
CCN(C)C=Nc1cc(C)c(Oc2snc3cccc(Cl)c23)cc1C [compound 214] | ≥ 70 | ≥ 70 | ≥ 70 | ≥ 70
Cc1cc(N=CN(C)C(C)C)c(Cl)cc1Oc1snc(-c2ccc(C(F)(F)F)cc2)c1C#N [compound 219] | ≥ 70 | ≥ 70 | – | ≥ 70
CCN(C)C=Nc1cc(C)c(Oc2snc(-c3ccc(C(F)(F)F)cc3)c2C#N)cc1Cl [compound 220] | ≥ 70 | ≥ 70 | ≥ 70 | ≥ 70
Cc1cc(Oc2snc(-c3ccc(C(F)(F)F)cc3)c2C#N)c(Cl)cc1N=CN(C)C(C)C [compound 223] | ≥ 70 | ≥ 70 | – | ≥ 70
CCN(C)C=Nc1cc(Cl)c(Oc2snc(-c3ccc(C(F)(F)F)cc3)c2C#N)cc1C [compound 224] | ≥ 70 | ≥ 70 | ≥ 70 | –
Cc1cc(Oc2snc(C(C)C)c2C#N)c(Cl)cc1N=CN(C)C [compound 234] | ≥ 70 | ≥ 70 | – | ≥ 70
Cc1cc(N=CN(C)C(C)C)c(Cl)cc1Oc1snc(C(C)(C)F)c1C#N [compound 238] | ≥ 70 | ≥ 70 | – | ≥ 70
CCN(C)C=Nc1cc(C)c(Oc2snc(-c3ccc(F)cc3Cl)c2C#N)cc1Cl [compound 239] | ≥ 70 | ≥ 70 | ≥ 70 | –
CCN(C)C=Nc1cc(Cl)c(Oc2snc(-c3ccc(Cl)cc3Cl)c2C#N)cc1C [compound 241] | ≥ 70 | ≥ 70 | ≥ 70 | ≥ 70

Structure (SMILES) | efficacy (Sphaerotheca fuliginea) [%] | efficacy (Puccinia recondita) [%] | efficacy (Pyrenophora teres) [%] | efficacy (Septoria tritici) [%]
CCN(C)C=Nc1cc(C)c(Oc2snc(-c3ccc(OC)cc3)c2C#N)cc1Cl [compound 248] | ≥ 70 | ≥ 70 | ≥ 70 | ≥ 70
CCN(C)C=Nc1cc(C)c(Oc2snc(C3(CC)C(C)C3(Cl)Cl)c2C#N)cc1C (centres unmarked) [compound 250] | ≥ 70 | ≥ 70 | – | ≥ 70
CCN(C)C=Nc1cc(C)c(Oc2snc(-c3ccc(OC)cc3)c2C#N)cc1C [compound 251] | ≥ 70 | ≥ 70 | ≥ 70 | ≥ 70
COc1ccc(-c2nsc(Oc3cc(Cl)c(N=CN(C)C(C)C)cc3C)c2C#N)cc1 [compound 253] | ≥ 70 | ≥ 70 | – | ≥ 70
COc1ccc(-c2nsc(Oc3cc(Cl)c(N=CN(C)C)cc3C)c2C#N)cc1 [compound 254] | ≥ 70 | ≥ 70 | – | –
COc1ccc(-c2nsc(Oc3cc(C)c(N=CN(C)C(C)C)cc3Cl)c2C#N)cc1 [compound 256] | ≥ 70 | ≥ 70 | – | ≥ 70
COc1ccc(-c2nsc(Oc3cc(C)c(N=CN(C)C)cc3Cl)c2C#N)cc1 [compound 257] | ≥ 70 | ≥ 70 | – | –
CCN(C)C=Nc1cc(C)c(Oc2snc(C3(CC)C(C)C3(Cl)Cl)c2C#N)cc1Cl (centres unmarked) [compound 258] | ≥ 70 | ≥ 70 | – | –
CCC1(c2nsc(Oc3cc(Cl)c(N=CN(C)C)cc3C)c2C#N)C(C)C1(Cl)Cl (centres unmarked) [compound 259] | ≥ 70 | ≥ 70 | – | –
CCN(C)C=Nc1cc(Cl)c(Oc2snc(C3(CC)C(C)C3(Cl)Cl)c2C#N)cc1C (centres unmarked) [compound 260] | ≥ 70 | ≥ 70 | ≥ 70 | –
CCC1(c2nsc(Oc3cc(C)c(N=CN(C)C(C)C)cc3Cl)c2C#N)C(C)C1(Cl)Cl (centres unmarked) [compound 261] | ≥ 70 | ≥ 70 | – | ≥ 70
CCC1(c2nsc(Oc3cc(C)c(N=CN(C)C)cc3Cl)c2C#N)C(C)C1(Cl)Cl (centres unmarked) [compound 262] | ≥ 70 | ≥ 70 | – | ≥ 70
Cc1cc(Oc2snc3c(Cl)ccc(Cl)c23)c(C)cc1N=CN(C)C(C)C [compound 265] | ≥ 70 | – | – | ≥ 70
CCC1(c2nsc(Oc3cc(Cl)c(N=CN(C)C(C)C)cc3C)c2C#N)C(C)C1(Cl)Cl (centres unmarked) [compound 267] | ≥ 70 | ≥ 70 | – | ≥ 70
Cc1cc(Oc2snc3cccc(Cl)c23)c(C)cc1N=CN(C)C(C)C [compound 268] | ≥ 70 | ≥ 70 | – | –
CCC1(c2nsc(Oc3cc(C)c(N=CN(C)C)cc3C)c2C#N)C(C)C1(Cl)Cl (centres unmarked) [compound 273] | ≥ 70 | ≥ 70 | – | ≥ 70
CCN(C)C=Nc1cc(C)c(Oc2snc3cccc(Cl)c23)cc1Cl [compound 277] | – | ≥ 70 | – | ≥ 70
CCN(C)C=Nc1cc(OC)c(Oc2snc(C)c2Cl)cc1Br [compound 290] | ≥ 70 | ≥ 70 | – | –
CCN(C)C=Nc1cc(OC)c(Oc2snc(C)c2Cl)cc1Cl [compound 291] | ≥ 70 | ≥ 70 | – | –
CCN(C)C=Nc1cc(C)c(Oc2snc(Cc3ccccc3)c2Cl)cc1C [compound 292] | ≥ 70 | ≥ 70 | – | –
CCN(C)C=Nc1cc(C)c(Oc2snc(Cc3ccc(Cl)cc3)c2Cl)cc1C [compound 293] | ≥ 70 | ≥ 70 | – | –
CCN(C)C=Nc1cc(C)c(Oc2snc(C3CCCCC3)c2C#N)cc1C [compound 294] | ≥ 70 | ≥ 70 | – | –
Cc1cc(Oc2snc(C3CCCCC3)c2C#N)c(C)cc1N=CN(C)C [compound 295] | ≥ 70 | ≥ 70 | – | –
Cc1cc(Oc2snc(C3CCCCC3)c2C#N)c(C)cc1N=CN(C)C(C)C [compound 296] | ≥ 70 | ≥ 70 | – | –
CCN(C)C=Nc1cc(C)c(Oc2cc(C(C)(C)C)ns2)cc1Cl [compound 297] | ≥ 70 | ≥ 70 | – | –
Cc1cc(Oc2snc(C(C)(C)CF)c2C#N)c(C)cc1N=CN(C)C(C)C [compound 298] | ≥ 70 | ≥ 70 | – | –
Cc1cc(Oc2snc(C(C)(C)CF)c2C#N)c(C)cc1N=CN(C)C [compound 299] | ≥ 70 | ≥ 70 | – | –
